Laboratory results as given in patent publication US10596224B2 (Biosolution Co., Ltd, priority 2016, dated 2020).

Assay: peptide synthesis
Conditions: whole synthesis

PEPTIDE1{R.P.K.P.Q.Q.F.F.G.L.M.[am]}$$$$V2.0
final purity (method not given): 85% or more

Strings that start with PEPTIDE1 are HELM notation: dots part the residues, brackets hold end groups and non-standard residues.
